Results are given in words; binding and its absence hold for the method and conditions named.
Legend:
[1] = molecular target: pAS H-Ras wt ΔC; experiment: two-hybrid; Y190 co-transformed with prey (pP6 or pACT) and bait (pAS) plasmids; growth on synthetic medium lacking leucine, tryptophan and histidine with 30 mM 3 AT (his3)
[2] = molecular target: pAS Rab3A wtΔC; experiment: as above
[3] = molecular target: pAS H-Ras wt ΔC; experiment: two-hybrid; Y190 co-transformed with prey (pP6 or pACT) and bait (pAS) plasmids; β-galactosidase reporter activity on replica filters with X-gal (β-gal)
[4] = molecular target: pAS Rab3A wtΔC; experiment: as above

binding [1]: no binding
binding [2]: no binding
binding [3]: no binding
binding [4]: no binding
B1: pP6 Mint1 (aa 438–769), yeast two-hybrid clone that lacks aa 495–505 (domain or fragment, UniProt Q02410-1)
chain: ASFPTYVEVPGPCDPEDLIDGIIFAANYLGSTQLLSDKTPSKNVRMMQAQEAVSRIKAPEGESQPMTEVDLFISTQRIKVLNADTQETMMDHPLRTISYIADIGNIVVLMARRRMPRSNSQENVEASHPSQDGKRQYKMICHVFESEDAQLIAQSIGQAFSVAYQEFLRANGINPEDLSQKEYSDLLNTQDMYNDDLIHFSKSENCKDVFIEKQKGEILGVVIVESGWGSILPTVIIANMMHGGPAEKSGKLNIGDQIMSINGTSLVGLPLSTCQSIIKGLKNQSRVKLNIVRCPPVTTVLIRRPDLRYQLGFSVQNGIIC

— publication PMC3667844
